# Reference: PubChem BioAssay AID1224827 (NIAID, 2016)
# Test: 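Identify regulators of the macrophage TNF-alpha response to bacterial LPS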 (follow-up of hits)
# Cell system: RAW264.7 G9 mouse macrophage reporter clone
# Reagents: single siRNA against mouse genes, 100 nM siRNA
# Duration: siRNA for 2 days, then LPS about 16 h
# Treatment: bacterial lipopolysaccharide (LPS), 10 ng/ml, cells fixed after overnight (about 16 h) stimulation
# Read-out: 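TNF promoter reporter red fluorescence in nuclei, background subtracted, normalised per plate and to non-targeting control siRNA, as z-scores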
# Scale: TNF reporter z-score, mean and TNF reporter z-score: higher = stronger Tnf promoter reporter signal; gene median z, three same-vendor siRNAs: higher = stronger Tnf reporter signal for the gene
# Active means: 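An siRNA is called active when its mean z-score over replicates is at least +2 or at most -2; control wells get no call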
# Here is an unselected part of about 3,800 deposited reagents. About 2,200 of them (57%) were called active. 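Active means a strong reporter change in either direction; calls are per siRNA, not per gene; qiagen siRNAs gave weaker effects.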 Unmarked entries are inactive. Reagents against one gene are numbered here.
The opening 2 entries, ahead of the listing:
Gene,reagent,"TNF reporter z-score, mean","gene median z, three same-vendor siRNAs","TNF reporter z-score, repeat 1","TNF reporter z-score, repeat 2"
Rassf8,1,0.461,-3.46,-1.16,2.08
Rassf8,2,-3.46 (active),-3.46,-3.15,-3.76

Main list, from the first entry:
Gene,reagent,"TNF reporter z-score, mean","gene median z, three same-vendor siRNAs","TNF reporter z-score, repeat 1","TNF reporter z-score, repeat 2"
Rassf8,1,0.461,-3.46,-1.16,2.08
Rassf8,2,-3.46 (active),-3.46,-3.15,-3.76
Rassf8,3,-4.28 (active),-3.46,-4.11,-4.46
Rassf8,4,1.13,-0.96,3.23,-0.978
Rassf8,5,-0.507,-0.96,-0.0712,-0.942
Rassf8,6,-1.08,-0.96,-1.06,-1.09
"Grpel2 (GrpE-like 2, mitochondrial)",1,4.67 (active),-2.47,4.28,5.06
"Grpel2 (GrpE-like 2, mitochondrial)",2,-2.6 (active),-2.47,-2.31,-2.88
"Grpel2 (GrpE-like 2, mitochondrial)",3,-2.74 (active),-2.47,-2.85,-2.63
"Grpel2 (GrpE-like 2, mitochondrial)",4,4.86 (active),1.69,8.49,1.22
"Grpel2 (GrpE-like 2, mitochondrial)",5,1.37,1.69,2.15,0.589
"Grpel2 (GrpE-like 2, mitochondrial)",6,1.15,1.69,3.15,-0.843
G6pd2 (glucose-6-phosphate dehydrogenase 2),1,-0.672,-4.16,-0.896,-0.447
G6pd2 (glucose-6-phosphate dehydrogenase 2),2,-4.69 (active),-4.16,-4.01,-5.36
G6pd2 (glucose-6-phosphate dehydrogenase 2),3,-5.1 (active),-4.16,-4.31,-5.9
G6pd2 (glucose-6-phosphate dehydrogenase 2),4,9.06 (active),0.964,15.6,2.55
G6pd2 (glucose-6-phosphate dehydrogenase 2),5,0.905,0.964,2.06,-0.249
G6pd2 (glucose-6-phosphate dehydrogenase 2),6,-1.26,0.964,-2.38,-0.132
Lmcd1 (LIM and cysteine-rich domains 1),1,0.0202,-2.72,-0.498,0.538
Lmcd1 (LIM and cysteine-rich domains 1),2,-2.72 (active),-2.72,-2.12,-3.32
Lmcd1 (LIM and cysteine-rich domains 1),3,-5.12 (active),-2.72,-5.59,-4.66
Lmcd1 (LIM and cysteine-rich domains 1),4,6.41 (active),1.03,11.3,1.55
Lmcd1 (LIM and cysteine-rich domains 1),5,1.98,1.03,3.45,0.508
Lmcd1 (LIM and cysteine-rich domains 1),6,-2.64 (active),1.03,-2.71,-2.57
